63 compounds from PubChem BioAssay AID2685 (National Center for Advancing Translational Sciences (NCATS), 2010) can be followed below.

Some of the results follow. These are further read-outs of the screen, such as a control signal, another cell line or another target. No call is given for them. Most of these compounds were active or inconclusive in the main read-out, so they are no random draw. Words in brackets tell the shape of the fitted curve; partial curves, single points and poor fits give uncertain potencies.

A short description of this experiment: qHTS Assay for Lipid Storage Modulators in Drosophila S3 Cells.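 For cell number change: cells counted by Cell Tracker Red CMTPX staining in the red channel.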 The conditions noted are these: BODIPY lipid droplet fluorescence, 18-24 h; for cell number change: measured here: cell count max response, cells fed with added oleic acid. The method in brief:
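Drosophila S3 cells got compounds at several concentrations plus oleic acid (400 uM solution). Laser-scanning cytometry with 488 nm excitation read lipid droplets at 500-530 nm and cells at 575-640 nm. Percent activity was relative to 20 uM Triacsin C.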
(qHTS replaces the single test concentration by a dilution series.)

Where [1] appears, read: measured here: lipid fluorescence (Fed channel) AC50, cells fed with added oleic acid.
The mark [2] stands for this setting: measured here: cell number channel AC50, cells fed with added oleic acid.

For orientation: AC50 means the concentration at which the activity in the assay is half-maximal. A higher AC50 goes with weaker potency. Regarding `Cc1cc(NC(=O)CN2C(=O)C3CC=CCC3C2=O)no1` (configuration not stated), the cell number change was -1.26%. Further, under setting [1], the AC50 was 0.731 µM [falling, full curve]. On to `O=C(O)CCN1/C(=C/C=Nc2ccccc2)Oc2ccccc21`, for which the cell number change is -10.8%. The AC50 under setting [1] is 0.116 µM [falling, full curve]. Regarding `COC(=O)[C@@H](Cc1ccccc1)NC(=O)NCCc1ccccc1`, the cell number change is -5.63%. Besides, under setting [2], the AC50 was 0.731 µM [rising, partial curve]. Under setting [1], the AC50 was 16.4 µM [falling, single point].

Regarding `Cc1cc(Cl)ccc1OCC(=O)Nc1cccc(S(=O)(=O)NC2=NCCCCC2)c1`, the AC50 under setting [2] was 1.3 µM [rising, partial curve].

As to `CCCCn1c(=O)c(CCC(=O)OCC(=O)NC(=O)NCCOC)nc2ccccc21`, the cell number change worked out at 6.18%.

Take `CCOC(=O)N1CCC(Nc2ccc3nnc(-c4ccccc4)n3n2)CC1`: the cell number change is -33.1%. Further, the AC50 under setting [2] was 13 µM [falling, partial curve]. Under setting [1], the AC50 is 14.6 µM [falling, partial curve]. As to `CCN(c1ccccc1)S(=O)(=O)c1ccc(OC)c(NC(=O)c2c(C)noc2C)c1`, the AC50 under setting [1] is 0.291 µM [rising, full curve, poor fit].

For `COc1ccc(-n2nc(C(=O)O)nc2-c2ccccc2)cc1`, the AC50 under setting [2] is 6.51 µM [falling, single point]. Regarding `O=C(NCc1ccco1)c1nnc(Cc2ccc(Cl)cc2)o1`, the cell number change came to 6.9%. As for `Cc1cccc(OCC(O)CN2CCN(c3ccccn3)CC2)c1C` (configuration not stated), the cell number change was determined as 32.4%. The AC50 under setting [2] is 29.1 µM [rising, single point].

Regarding `CC(=O)Nc1ccc(SCC(=O)OCC(=O)NC(=O)NCCC(C)C)cc1`, under setting [2], the AC50 is 1.3 µM [rising, full curve]. As to `CCN(CC)S(=O)(=O)c1ccc(NC(=O)COC(=O)CN2C(=O)c3ccccc3C2=O)cc1`, the cell number change was -48%. Besides, under setting [2], the AC50 was 29.1 µM [falling, single point]. Under setting [1], the AC50 is 16.4 µM [falling, partial curve]. Take `O=C(COc1ccc(C(=O)c2ccccc2)cc1)Nc1cccnc1`: the cell number change was determined as 12.6%.

Turning to `Cc1cc(C)n(CC(O)COc2cccc(OCC(O)Cn3nc(C)cc3C)c2)n1` (configuration not stated), the cell number change was -19.6%. The AC50 under setting [1] was 3.66 µM [rising, single point]. Turning to `Cc1cccc(NC(=O)c2ccc(-n3cncn3)c([N+](=O)[O-])c2)c1`, under setting [1], the AC50 is 29.1 µM [rising, single point]. On to `COc1ccc(S(=O)(=O)NCc2ccc(C(=O)N(C)Cc3ccco3)cc2)cc1`, for which the cell number change amounted to 34%. In addition, the AC50 under setting [2] is 5.17 µM [rising, full curve]. Under setting [1], the AC50 is 16.4 µM [rising, partial curve]. Regarding `N#C/C(=C\c1ccc(-c2ccc(C(=O)O)cc2)o1)c1nc2ccccc2[nH]1`, the cell number change was 9.93%. Also, the AC50 under setting [2] is 1.64 µM [falling, partial curve]. The AC50 under setting [1] was 0.651 µM [falling, single point]. In the case of `Cc1ccc(C)c(Cn2ncc3ccccc32)c1`, the cell number change stood at 11.3%. Further, the AC50 under setting [1] was 0.651 µM [rising, single point].

As to `O=C(Nc1nc2ccccc2s1)C1CCN(S(=O)(=O)c2cc([N+](=O)[O-])ccc2Cl)CC1`, the cell number change is -33%. Further, the AC50 under setting [2] is 0.0082 µM [falling, full curve, poor fit]. Consider `Cc1cc2c(c(=O)o1)C1O[C@](CCCCN3C(=O)c4ccccc4C3=O)(Cc3cc(C#N)ccc31)O2`, for which the cell number change worked out at 6.98%. Further, the AC50 under setting [1] is 5.31 µM [rising, single point]. On to `Cc1ccc(NC(=O)NC2CC(=O)N(c3ccc4c(c3)OCCO4)C2)c(C)c1` (configuration not stated), for which the AC50 under setting [2] was 0.92 µM [rising, full curve, poor fit]. For `COc1ccccc1-c1nnc(SCC(=O)NC2CC2)n1C`, the cell number change is -24.4%. Besides, the AC50 under setting [2] was 0.58 µM [falling, full curve, poor fit]. Under setting [1], the AC50 was 0.164 µM [falling, full curve, poor fit]. With `CCOC(=O)Cc1csc(NC(=O)CSc2nnc(Cc3csc(N)n3)n2C)n1`, the cell number change was -16.3%. In the case of `CCOC(=O)N1CCN(CC(O)COc2cc(C)ccc2C(C)C)CC1` (configuration not stated), the cell number change was -8.96%. Further, the AC50 under setting [1] was 29.1 µM [rising, single point]. For the compound `COCCNc1nc(-c2cc(C)c(C)cc2C)cs1`, the cell number change was found to be 4.39%. The same measure, in the same setting: then `COC(=O)c1ccc(NC(=O)Nc2ccc(OC)c(OC)c2)cc1`, with 24.1%. Consider `O=C(O)CC1S/C(=N/N=C2CCCCC2)N(c2ccccc2)C1=O` (configuration not stated), for which the cell number change is -42.1%. The AC50 under setting [2] is 11.6 µM [falling, partial curve]. In the case of `CCOC(=O)c1ccc(NC(=O)c2nc[nH]c2C(=O)N[C@@H](CC(C)C)C(=O)OCc2ccccc2)cc1`, the cell number change is -0.425%. Further, the AC50 under setting [1] is 3.66 µM [falling, single point]. For `CCOc1cc(/C=C2/C(=O)N(c3ccccc3)N=C2C)ccc1OC(=O)c1ccco1`, the cell number change is -16.3%. Further, the AC50 under setting [1] was 6.51 µM [rising, single point]. Take `COc1ccc(OC)c(C(C(=O)NC2CCCCC2)N(C(=O)c2ccccn2)c2cccnc2)c1` (configuration not stated): the cell number change was -6.09%.

Turning to `COc1ccc(/C=N/NC(=O)c2cc(-c3ccccc3)nc3ccccc23)cc1O`, the AC50 under setting [1] was 29.1 µM [rising, single point]. For the compound `Nc1cccc(-c2nc3ccc(N)cc3s2)c1`, the cell number change was -10.6%. Also, the AC50 under setting [1] was 0.82 µM [rising, full curve, poor fit]. Regarding `CCOc1ccc(CCNC(=O)c2ccc(CS(=O)Cc3ccc(Cl)cc3)o2)cc1` (configuration not stated), under setting [1], the AC50 is 3.66 µM [falling, single point]. As for `Cc1cc(C(=O)NNC(=S)NC(C)c2ccccc2)c2ccccc2n1` (configuration not stated), the cell number change is -17%. The AC50 under setting [1] was 29.1 µM [falling, single point]. For `Cc1ccc(-n2c(-c3ccccc3)c[n+]3c2CCc2ccccc2-3)c(C)c1`, the cell number change was -121%. Further, the AC50 under setting [2] is 18.4 µM [falling, partial curve]. Also, under setting [1], the AC50 was 20.6 µM [falling, partial curve]. `CCn1c(SCc2ccc(C)cc2)nnc1-c1nn(-c2ccccc2)ccc1=O`: the cell number change came out at 33%. Moreover, under setting [2], the AC50 is 0.411 µM [rising, full curve]. For the same compound, the AC50 under setting [1] is 1.3 µM [rising, full curve].

Turning to `CCOC(=O)c1c(C)[nH]c(C)c1C(=O)COC(=O)[C@@H](NC(=O)c1ccccc1OCC)C(C)C`, the cell number change was determined as 69.8%. The AC50 under setting [2] was 0.13 µM [rising, full curve, poor fit]. Besides, the AC50 under setting [1] was 14.6 µM [rising, partial curve]. In the case of `CCN(CC)CCCn1c2c(c(SCC(=O)Nc3nccs3)nc1=O)CCC2`, the cell number change was -7.78%. Moreover, the AC50 under setting [1] is 23.1 µM [falling, partial curve, poor fit]. Take `OCCC1CN(Cc2cccs2)CCN1Cc1ccccc1` (configuration not stated): the cell number change was 28.6%. Further, the AC50 under setting [1] was 0.366 µM [rising, full curve, poor fit].

On to `Clc1ccc(Cc2nn3c(Cn4nnc5ccccc54)nnc3s2)cc1`, for which the AC50 runs as follows: under setting [2], 2.31 µM [rising, partial curve]; under setting [1], 1.3 µM [rising, partial curve]. For `FC(F)(F)c1cc(-c2cccs2)nc(-n2cc(Br)cn2)n1`, the AC50 under setting [1] was 14.6 µM [rising, partial curve]. Consider `COc1ccc(SC[C@H](Cc2ccccc2)N2CC[C@@H](C)CCC2=O)cc1`, for which the cell number change came out at 16.9%. Besides, under setting [1], the AC50 is 5.17 µM [falling, single point]. For the compound `Clc1ccc(C=NC23CN4CN(CN(C4)C2)C3)cc1`, the cell number change was -12.3%. With `CN1C(=O)CSC1=NCC12CC3CC(CC(C3)C1)C2`, the cell number change was -7.2%. For the same compound, under setting [2], the AC50 is 6.51 µM [falling, single point]. The AC50 under setting [1] is 29.1 µM [falling, single point]. For `CN(Cc1ccccc1)C(=O)c1ccc(NC(=O)Cc2cccc(NC(=O)C3CCN(C(=O)C4CC4)CC3)c2)cc1`, the cell number change is -23.8%. Moreover, the AC50 under setting [2] is 0.00517 µM [falling, full curve, poor fit]. For the compound `O=C(O)Cn1nnnc1-c1ccc(F)cc1`, the cell number change was -14.1%. Also, the AC50 under setting [1] is 29.1 µM [falling, partial curve].

On to `O=C(O)CN1C(=O)/C(=C\c2ccccc2OCc2ccc(F)cc2)SC1=S`, for which the cell number change was -21.1%. Regarding `Cc1cc2nc(SCCOC(=O)Nc3cccc(Cl)c3)nc(C)c2cc1C`, the cell number change was 10.9%. Also, the AC50 under setting [1] is 1.46 µM [falling, single point]. For `Cc1cc(C)n2nc(SCC(=O)NC3CCCCC3)nc2n1`, the cell number change stood at 34%. The AC50 under setting [2] was 32.6 µM [rising, single point].

`Cc1nn(Cc2c(Cl)cccc2Cl)c(Cl)c1/C=N/NC(=O)c1cccnc1`: the cell number change worked out at 16.7%.

Regarding `COc1ccc(-c2nc(NC3=NCCCCC3)sc2C)cc1`, the AC50 under setting [2] was 6.51 µM [rising, partial curve, poor fit]. Take `O=C1C(Cl)=C(N2CCCCCC2)C(=O)N1c1ccccc1`: the cell number change is -11.4%. Besides, the AC50 under setting [1] was 0.731 µM [rising, partial curve]. For the compound `Cc1cc(Cl)ccc1OCC(=O)NCCC(=O)O`, the cell number change was -0.279%. Also, under setting [1], the AC50 is 32.6 µM [falling, single point]. With `O=Cc1ccccc1Oc1nc(N2CCOCC2)nc(N2CCOCC2)n1`, the cell number change was 55.5%. Besides, the AC50 under setting [2] is 4.11 µM [rising, full curve, poor fit]. With `CN(Cc1cccs1)C(=O)COc1cccc(-n2cnnn2)c1`, the cell number change was determined as 4.94%. For the same compound, the half-maximal activity concentration (AC50) under setting [1] is 6.51 µM [rising, single point]. On to `COC(=O)C1=C(C)N(c2ccc(S(N)(=O)=O)cc2)C(=O)C1`, for which the cell number change was -0.253%. For the same compound, the AC50 under setting [1] was 0.058 µM [falling, full curve, poor fit]. Take `Cn1ccc(C(=O)Nc2ccc3c(c2)OCCO3)n1`: the cell number change was -9.27%. `COc1ccc2[nH]c(C(=O)N3CCNCC3)cc2c1OC`: the cell number change was -38.9%. Also, the AC50 under setting [2] is 8.2 µM [falling, full curve, poor fit]. In the case of `COc1cc(/C=C/C(=O)OCC(=O)NCCC2=CCCCC2)ccc1O`, the cell number change worked out at 13.9%.

In the case of `CC(C(=O)NCc1ccccn1)c1ccc([N+](=O)[O-])cc1` (configuration not stated), the cell number change is -33.6%. Turning to `C=CCn1nnnc1-c1cc(Cl)cc(Cl)c1`, the cell number change stood at 83.8%. In addition, under setting [2], the AC50 was 18.4 µM [rising, single point].

Take `Cc1cccc(CC2CC(=O)N(c3nc4ccccc4s3)C2=O)c1` (configuration not stated): the cell number change came out at 5.73%. Regarding `C(=N\Nc1nc(N2CCOCC2)nc(N2CCOCC2)n1)/c1ccco1`, the cell number change was -1.24%. For the same compound, the AC50 under setting [1] was 32.6 µM [falling, single point].
